Assay results from PubChem BioAssay AID328 (DTP/NCI, 2004).
The list shows only some results of the screen, not a fair sample: it gathers tests that were run many times, whatever their T/C, doses with no T/C, and many T/C values between a quarter and a half above the control. Other doses and runs of a compound stand elsewhere. T/C is the treated group as % of the vehicle group. Some doses have a count of surviving animals in place of a T/C: the source files T/C as zero there, which appears to mark a toxic dose or a test without result, not a measured value. Some doses without a T/C left all or most animals alive at the check, yet need not have been tolerated: survival well below the control is almost never listed, so the zero probably covers shortened survival too. Counts of survivors are from the toxicity check (mostly the fifth day) where no day follows; animals may have died later. Schedule codes are those of the source, taken here to give the interval after Q, in days (D) or hours (H), and the number of doses after X. For survival time, this PubChem deposit counts one and a half times the control or more as active, and values a quarter to a half above the control carry no call in these data; other NCI protocols may use other cut-offs. Some doses were run more than once; their values stand side by side, smallest first. Some T/C values carry the count of animals alive at the toxicity check (mostly the fifth day); where none is given, no animal had died by that day.

Tested on: BDF1 mice, P388 leukemia ip, median survival T/C
Assay: NCI In Vivo Anticancer Drug Screen. Data for tumor model P388 Leukemia (intraperitoneal) in B6D2F1 (BDF1) mice
Conditions: T/C endpoint: median survival time, higher T/C = longer survival
In short: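 In tumour-bearing mice, survival after compound treatment is set against the vehicle group and given as a quotient.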

[1] = dose: 100.0 mg/kg/injection, schedule: Q01DX009 (ip), vehicle: Klucel (hydroxypropylcellulose) (HPC)
[2] = dose: 200.0 mg/kg/injection, schedule: Q01DX009 (ip), vehicle: saline with Tween-80
[3] = dose: 400.0 mg/kg/injection, schedule: Q04DX003 (ip), vehicle: Klucel (hydroxypropylcellulose) (HPC)
[4] = dose: 50.0 mg/kg/injection, schedule: Q01DX009 (ip), vehicle: saline
[5] = dose: 100.0 mg/kg/injection, schedule: Q01DX009 (ip), vehicle: saline
[6] = dose: 100.0 mg/kg/injection, schedule: Q01DX009 (ip), vehicle: saline with Tween-80
[7] = dose: 6.25 mg/kg/injection, schedule: Q04DX003 (ip), vehicle: saline with Tween-80

O=NN(CCF)C(=O)NCCF
T/C (dose: 0.25 mg/kg/injection, schedule: Q01DX009 (ip), vehicle: saline): 127 % of control
T/C (dose: 0.5 mg/kg/injection, schedule: Q01DX009 (ip), vehicle: saline): 127 and 130 % of control
survivor count (dose: 2.0 mg/kg/injection, schedule: Q01DX009 (ip), vehicle: saline): 6 of 6
T/C (dose: 2.2 mg/kg/injection, schedule: Q04DX003 (ip), vehicle: saline): 143 % of control
T/C (dose: 5.0 mg/kg/injection, schedule: Q04DX003 (ip), vehicle: saline): 130 % of control

O=C(Nc1ccc(NC(=O)c2ccccc2)c(Sc2ccccc2)c1Sc1ccccc1)c1ccccc1
survivor count (dose: 200.0 mg/kg/injection, schedule: Q01DX001 (ip), vehicle: saline with Tween-80): 6 of 6

CCOC(=O)C1=C(C)NC(C)=C(C(=O)OCC)C1c1ccccc1Cl
survivor count (dose: 170.0 mg/kg/injection, schedule: Q01DX009 (ip), vehicle: Klucel (hydroxypropylcellulose) (HPC)): 0 of 6
survivor count (dose: 170.0 mg/kg/injection, schedule: Q04DX003 (ip), vehicle: Klucel (hydroxypropylcellulose) (HPC)): 3 of 6
survivor count (dose: 260.0 mg/kg/injection, schedule: Q04DX003 (ip), vehicle: Klucel (hydroxypropylcellulose) (HPC)): 0 of 6
survivor count (dose: 390.0 mg/kg/injection, schedule: Q01DX001 (ip), vehicle: Klucel (hydroxypropylcellulose) (HPC)): 1 of 6
survivor count (dose: 390.0 mg/kg/injection, schedule: Q04DX003 (ip), vehicle: Klucel (hydroxypropylcellulose) (HPC)): 0 of 6

Brc1cnn2c1NCC2
survivor count (dose: 100.0 mg/kg/injection, schedule: Q04DX003 (ip), vehicle: water): 3 of 6
survivor count (dose: 200.0 mg/kg/injection, schedule: Q04DX003 (ip), vehicle: water): 5 of 6
survivor count (dose: 400.0 mg/kg/injection, schedule: Q04DX003 (ip), vehicle: water): 4 of 6

Cc1cc(N(CCCl)CCCl)ccc1C=Nc1cccnc1
T/C [1]: 135 % of control

CCSSC(=Nc1ccccc1)OCC(C)C
T/C (dose: 100.0 mg/kg/injection, schedule: Q01DX009 (ip), vehicle: other): 128 % of control
T/C (dose: 200.0 mg/kg/injection, schedule: Q01DX009 (ip), vehicle: other): 144 % of control

CS(=O)/C=C(\c1ccccc1)c1cccs1 (stereo not given)
survivor count [2]: 3 of 6

C=C1C(=O)OC(/C=C(\C)CO)C1C(C/C(C)=C/CO)OC(=O)/C(C)=C\C (stereo not given)
survivor count (dose: 400.0 mg/kg/injection, schedule: Q01DX009 (ip), vehicle: Klucel (hydroxypropylcellulose) (HPC)): 0 of 6

CCCCCCCCCCCCCCCC[N+]1(CC)CCCC1
survivor count (dose: 0.78 mg/kg/injection, schedule: Q01DX009 (ip), vehicle: saline): 3 of 6
survivor count (dose: 1.56 mg/kg/injection, schedule: Q01DX009 (ip), vehicle: saline): 2 of 6
survivor count (dose: 3.12 mg/kg/injection, schedule: Q01DX009 (ip), vehicle: saline): 2 of 6

CCOc1ccc(NC(=S)N(C)C)cc1
survivor count [2]: 0 of 6

NC(=O)c1ccc(C(F)(F)F)cc1O
survivor count [3]: 6 of 6

O=C(NC(=O)c1c(F)cccc1F)Nc1ccc(OCc2ccccc2)cc1
survivor count [2]: 6 of 6

COc1ccc(C2=CC(=O)C(c3ccc(OC)cc3)=CC2=O)cc1
survivor count (dose: 10.0 mg/kg/injection, schedule: Q01DX009 (ip), vehicle: gum acacia): 6 of 6
survivor count (dose: 20.0 mg/kg/injection, schedule: Q01DX009 (ip), vehicle: gum acacia): 6 of 6

C[n+]1c(-c2ccc(Cl)cc2Cl)c2cc(N)ccc2c2ccccc21
survivor count (dose: 0.39 mg/kg/injection, schedule: Q01DX009 (ip), vehicle: water): 6 of 6

Cc1cc(Br)c2nsnc2c1[N+](=O)[O-]
T/C (dose: 100.0 mg/kg/injection, schedule: Q01DX005 (ip), vehicle: saline with Tween-80): 127 % of control
T/C (dose: 200.0 mg/kg/injection, schedule: Q01DX005 (ip), vehicle: saline with Tween-80): 125 % of control

CCCCCOC(CN)C(Cl)(Cl)Cl (stereo not given)
T/C [4]: 130 % of control [5 of 6 alive]
T/C (dose: 75.0 mg/kg/injection, schedule: Q01DX009 (ip), vehicle: saline): 127 % of control
survivor count [5]: 6 of 6

COc1ccc(/C=C2\C(=O)C(c3ccccc3)N(c3ccccc3)C2=O)cc1 (stereo not given)
survivor count (dose: 100.0 mg/kg/injection, schedule: Q04DX002 (ip), vehicle: saline with Tween-80): 6 of 6
survivor count (dose: 200.0 mg/kg/injection, schedule: Q04DX002 (ip), vehicle: saline with Tween-80): 6 of 6

CCC(=O)OCC1OC(n2cnc3c(=S)nc(N)[nH]c32)C(OC(=O)CC)C1OC(=O)CC (stereo not given)
T/C (dose: 16.5 mg/kg/injection, schedule: Q04DX003 (ip), vehicle: saline + alcohol): 125 % of control
T/C (dose: 25.0 mg/kg/injection, schedule: Q04DX003 (ip), vehicle: Klucel (hydroxypropylcellulose) (HPC)): 131 % of control
T/C (dose: 25.0 mg/kg/injection, schedule: Q04DX003 (ip), vehicle: saline + alcohol): 141 % of control
T/C (dose: 37.5 mg/kg/injection, schedule: Q04DX003 (ip), vehicle: Klucel (hydroxypropylcellulose) (HPC)): 136 % of control
T/C (dose: 37.5 mg/kg/injection, schedule: Q04DX003 (ip), vehicle: saline + alcohol): 125 % of control
T/C (dose: 50.0 mg/kg/injection, schedule: Q04DX003 (ip), vehicle: Klucel (hydroxypropylcellulose) (HPC)): 134 % of control
survivor count [1]: 5 of 6
survivor count (dose: 200.0 mg/kg/injection, schedule: Q04DX003 (ip), vehicle: Klucel (hydroxypropylcellulose) (HPC)): 6 of 6
survivor count [3]: 6 of 6

NC(=S)c1cn(C2OC(CO)C(O)C2O)c2ncnc(N)c12 (stereo not given)
survivor count (dose: 7.5 mg/kg/injection, schedule: Q01DX009 (ip), vehicle: saline with Tween-80): 4 of 6

CCOC(=O)c1cnn(C(N)=S)c1N
survivor count [6]: 5 of 6
survivor count [2]: 4 of 6

CNC[C@@H](O)c1ccc(O)c(O)c1
survivor count (dose: 1.0 mg/kg/injection, schedule: Q01DX009 (ip), vehicle: saline): 6 of 6
survivor count (dose: 4.0 mg/kg/injection, schedule: Q01DX001 (ip), vehicle: saline): 2 of 6
survivor count (dose: 4.0 mg/kg/injection, schedule: Q04DX003 (ip), vehicle: saline): 6 of 6
T/C (dose: 5.9 mg/kg/injection, schedule: Q01DX009 (ip), vehicle: saline): 130 % of control [5 of 6 alive]
survivor count (dose: 8.0 mg/kg/injection, schedule: Q01DX001 (ip), vehicle: saline): 3 of 6
survivor count (dose: 8.0 mg/kg/injection, schedule: Q04DX003 (ip), vehicle: saline): 0 of 6
survivor count (dose: 13.0 mg/kg/injection, schedule: Q01DX009 (ip), vehicle: saline): 1 of 6
survivor count (dose: 16.0 mg/kg/injection, schedule: Q04DX003 (ip), vehicle: saline): 6 of 6

BrCC1CCCO1 (stereo not given)
survivor count [6]: 0 of 6

Cc1c2ccccc2c(CSC(=N)N)c2ccccc12
T/C (dose: 2.78 mg/kg/injection, schedule: Q04DX003 (ip), vehicle: saline with Tween-80): 127 % of control
T/C (dose: 4.17 mg/kg/injection, schedule: Q04DX003 (ip), vehicle: saline with Tween-80): 131 % of control
T/C [7]: 127 % of control
T/C (dose: 6.25 mg/kg/injection, schedule: Q04DX003 (ip), vehicle: saline): 140 % of control

NC(=S)N/N=C\c1ncccc1OCc1cccc(N)c1
T/C (dose: 12.5 mg/kg/injection, schedule: Q01DX009 (ip), vehicle: other): 145 % of control

CCOC(=O)/C=C/C(C(=O)OCC)C(=O)OCC
T/C (dose: 300.0 mg/kg/injection, schedule: Q04DX003 (ip), vehicle: saline with Tween-80): 130 % of control

COc1cccc(C)c1NC1=NCCO1
survivor count (dose: 3.13 mg/kg/injection, schedule: Q04DX003 (ip), vehicle: saline with Tween-80): 3 of 6
survivor count [7]: 5 of 6

O=[N+]([O-])c1cc2no[n+]([O-])c2cc1N1CCOCC1
T/C (dose: 15.0 mg/kg/injection, schedule: Q01DX009 (ip), vehicle: saline with Tween-80): 126 % of control
survivor count (dose: 60.0 mg/kg/injection, schedule: Q01DX009 (ip), vehicle: saline with Tween-80): 3 of 7

Nc1nnc[se]1
T/C [4]: 138 % of control
survivor count [6]: 6 of 6
survivor count [5]: 6 of 6
survivor count [2]: 6 of 6
